Assay [1] addresses T1, OsTopVIB (yeast two-hybrid fusion) (Oryza sativa L. ssp. japonica) (UniProt Q6H442).
T1 sequence: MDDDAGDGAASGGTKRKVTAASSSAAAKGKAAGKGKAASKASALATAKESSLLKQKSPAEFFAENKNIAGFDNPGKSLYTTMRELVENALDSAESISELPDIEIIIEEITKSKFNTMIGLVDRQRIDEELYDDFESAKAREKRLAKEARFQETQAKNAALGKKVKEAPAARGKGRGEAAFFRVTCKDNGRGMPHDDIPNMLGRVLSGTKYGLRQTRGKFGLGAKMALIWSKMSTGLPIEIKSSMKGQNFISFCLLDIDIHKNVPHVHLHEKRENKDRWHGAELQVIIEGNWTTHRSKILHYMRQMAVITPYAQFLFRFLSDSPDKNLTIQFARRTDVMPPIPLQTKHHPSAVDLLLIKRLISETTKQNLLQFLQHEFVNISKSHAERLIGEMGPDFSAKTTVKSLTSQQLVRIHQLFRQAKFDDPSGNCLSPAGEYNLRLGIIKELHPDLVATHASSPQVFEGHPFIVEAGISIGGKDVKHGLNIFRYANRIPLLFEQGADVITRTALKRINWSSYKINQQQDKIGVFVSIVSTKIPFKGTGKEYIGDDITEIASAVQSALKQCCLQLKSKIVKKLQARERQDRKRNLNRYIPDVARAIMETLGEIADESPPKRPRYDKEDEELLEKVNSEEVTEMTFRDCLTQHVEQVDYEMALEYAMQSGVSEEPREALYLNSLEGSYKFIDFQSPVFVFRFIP
Kind of assay: two-hybrid; … GAL4 Two-hybrid System 3; AD (pGADT7) and BD (pGBKT7) fusions co-transformed into yeast AH109; growth on QDO medium, then colony-lift filter assay with X-gal staining for 7 h.

The target in assay [2] is T2, OsSpo11-1 (yeast two-hybrid fusion) (Oryza sativa L. ssp. japonica) (UniProt Q7Y021).
T2 sequence: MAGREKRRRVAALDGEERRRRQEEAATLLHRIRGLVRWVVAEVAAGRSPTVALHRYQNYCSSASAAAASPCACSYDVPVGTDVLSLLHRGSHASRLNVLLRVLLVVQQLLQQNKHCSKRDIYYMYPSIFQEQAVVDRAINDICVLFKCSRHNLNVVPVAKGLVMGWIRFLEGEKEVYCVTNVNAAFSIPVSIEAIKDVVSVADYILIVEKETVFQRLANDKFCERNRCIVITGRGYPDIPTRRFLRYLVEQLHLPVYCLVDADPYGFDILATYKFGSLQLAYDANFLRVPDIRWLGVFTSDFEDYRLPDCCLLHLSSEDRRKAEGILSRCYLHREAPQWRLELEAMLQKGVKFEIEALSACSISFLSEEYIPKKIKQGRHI
The assay is described as above.

No constants are given. Whether binding was seen depends on the method and setting. For some assays here: Binding can be weak; no strength is given. Where a sequence is shown, tags or fusion partners need not be part of it.

As for “OsSpo11-5 (yeast two-hybrid fusion, full-length protein) (from UniProt D1MIY4)”, the binding entry in assay [1] is on record as “no binding”.

As to “OsSpo11-5N, N-terminal extension of 412 amino acids of OsSpo11-5 (yeast two-hybrid fusion) (Oryza sativa L. ssp. japonica) (domain or fragment)”, the binding result in assay [2] was “binds weakly”.

For the origin of these results see paper PMC3102714, “OsSpo11-4, a Rice Homologue of the Archaeal TopVIA Protein, Mediates Double-Strand DNA Cleavage and Interacts with OsTopVIB” (PLoS ONE, 2011).
